Results deposited as PubChem BioAssay AID1259308 (NCATS, 2017).
Aim: 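Candidate targets for better recombinant protein yield in mammalian cells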 (primary screen). System: human HEK293 embryonic kidney cells stably expressing firefly luciferase (HEK-CMV-Luc2-Hygro). Reagents: single siRNA against human genes, 0.8 pmol siRNA per well. Duration: 72 h. Read-out: 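Reporter luminescence and viable-cell signal on separate replicate plates, given as percent of non-targeting control and median/MAD z-scores, plus per-cell luciferase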. Reading the numbers: total luciferase, z-score and total luciferase, % of control: higher = more reporter protein produced; luciferase per cell, z-score: higher = more reporter output per viable cell; viable cells, % of control: higher = more viable cells. Active means: 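Active when the median/MAD z-score for overall luciferase is greater than 3; a gene was taken forward for validation with new siRNAs if at least two of its three siRNAs passed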. Meaning of the calls: active = raised luciferase; inactive = no rise.
Here is a random part of about 59,000 deposited reagents. In the full data, about 1,510 (2.6%) are marked active. 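Calls use total luciferase alone and ignore viability, so some active siRNAs may act by altering cell number.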 The numbers tell different reagents against one gene apart. Reagent sequences are not shown.

| gene knocked down | siRNA no. | total luciferase, z-score | total luciferase, % of control | luciferase per cell, z-score | viable cells, % of control | Call |
| --- | --- | --- | --- | --- | --- | --- |
| IRF5 (interferon regulatory factor 5) | 1 | 0.687 | 95.5 | 0.466 | 94.4 | inactive |
| IRF5 (interferon regulatory factor 5) | 2 | 0.43 | 90.4 | 1.08 | 76 | inactive |
| IRF5 (interferon regulatory factor 5) | 3 | -0.026 | 81.4 | -0.932 | 116 | inactive |
| PRPF31 (pre-mRNA processing factor 31) | 1 | 0.186 | 85.6 | 0.428 | 85.4 | inactive |
| PRPF31 (pre-mRNA processing factor 31) | 2 | 1.26 | 107 | 2.49 | 62 | inactive |
| PRPF31 (pre-mRNA processing factor 31) | 3 | 1.01 | 102 | 1.55 | 75.7 | inactive |
| XAGE2 (X antigen family member 2) | 1 | 1.18 | 105 | 1.63 | 76.6 | inactive |
| XAGE2 (X antigen family member 2) | 2 | 3.66 | 155 | 5.06 | 45.6 | active |
| XAGE2 (X antigen family member 2) | 3 | -1.31 | 55.9 | -2.47 | 120 | inactive |
| ITGA6 (integrin subunit alpha 6) | 1 | -1.67 | 48.7 | -1.67 | 84.5 | inactive |
| ITGA6 (integrin subunit alpha 6) | 2 | -1.21 | 57.9 | -1.95 | 108 | inactive |
| ITGA6 (integrin subunit alpha 6) | 3 | -1.14 | 59.2 | -1.98 | 111 | inactive |
| SCAMP3 | 1 | -1.19 | 58.1 | 1.2 | 47.4 | inactive |
| SCAMP3 | 2 | 1.08 | 103 | 1.86 | 70.9 | inactive |
| SCAMP3 | 3 | 0.358 | 89 | 0.396 | 89.6 | inactive |
| NOS1AP (nitric oxide synthase 1 adaptor protein) | 1 | 0.12 | 84.3 | 0.394 | 84.9 | inactive |
| NOS1AP (nitric oxide synthase 1 adaptor protein) | 2 | -0.0188 | 81.5 | -0.0994 | 93.5 | inactive |
| NOS1AP (nitric oxide synthase 1 adaptor protein) | 3 | -0.498 | 72 | -0.147 | 83.6 | inactive |
| KCNK9 (potassium two pore domain channel subfamily K member 9) | 1 | 0.579 | 93.4 | 0.655 | 87.9 | inactive |
| KCNK9 (potassium two pore domain channel subfamily K member 9) | 2 | -0.613 | 69.7 | -0.885 | 98.3 | inactive |
| KCNK9 (potassium two pore domain channel subfamily K member 9) | 3 | -1.1 | 60 | -1.39 | 96.7 | inactive |
| FGF22 (fibroblast growth factor 22) | 1 | 2.19 | 126 | 3.04 | 62.9 | inactive |
| FGF22 (fibroblast growth factor 22) | 2 | 0.385 | 89.5 | -0.114 | 103 | inactive |
| FGF22 (fibroblast growth factor 22) | 3 | 0.53 | 92.4 | 0.409 | 92.7 | inactive |

The list goes on; the last 4 above are carried over.
| gene knocked down | siRNA no. | total luciferase, z-score | total luciferase, % of control | luciferase per cell, z-score | viable cells, % of control | Call |
| --- | --- | --- | --- | --- | --- | --- |
| KCNK9 (potassium two pore domain channel subfamily K member 9) | 3 | -1.1 | 60 | -1.39 | 96.7 | inactive |
| FGF22 (fibroblast growth factor 22) | 1 | 2.19 | 126 | 3.04 | 62.9 | inactive |
| FGF22 (fibroblast growth factor 22) | 2 | 0.385 | 89.5 | -0.114 | 103 | inactive |
| FGF22 (fibroblast growth factor 22) | 3 | 0.53 | 92.4 | 0.409 | 92.7 | inactive |
| ZFP3 (ZFP3 zinc finger protein) | 1 | 0.298 | 87.8 | 0.238 | 92.2 | inactive |
| ZFP3 (ZFP3 zinc finger protein) | 2 | -0.344 | 75 | 2.6 | 42.3 | inactive |
| ZFP3 (ZFP3 zinc finger protein) | 3 | -0.0365 | 81.2 | -0.0356 | 91.5 | inactive |
| SUCLG2P2 (SUCLG2 pseudogene 2) | 1 | -0.346 | 75 | 0.881 | 66.5 | inactive |
| SUCLG2P2 (SUCLG2 pseudogene 2) | 2 | -0.172 | 78.5 | 0.135 | 84.6 | inactive |
| SUCLG2P2 (SUCLG2 pseudogene 2) | 3 | -0.658 | 68.8 | -0.602 | 90.1 | inactive |
| POU6F1 (POU class 6 homeobox 1) | 1 | -0.16 | 78.7 | -0.26 | 94.2 | inactive |
| POU6F1 (POU class 6 homeobox 1) | 2 | 2.89 | 139 | 2.06 | 90.5 | inactive |
| POU6F1 (POU class 6 homeobox 1) | 3 | -2.37 | 34.8 | -0.0777 | 39.7 | inactive |
| RCAN2 (regulator of calcineurin 2) | 1 | 0.164 | 85.1 | 0.222 | 89.7 | inactive |
| RCAN2 (regulator of calcineurin 2) | 2 | -0.0186 | 81.5 | 0.337 | 83.4 | inactive |
| RCAN2 (regulator of calcineurin 2) | 3 | -1.21 | 57.7 | -1.02 | 84.3 | inactive |
| EXOC2 (exocyst complex component 2) | 1 | 0.17 | 85.3 | 0.362 | 86.6 | inactive |
| EXOC2 (exocyst complex component 2) | 2 | -0.443 | 73.1 | -0.876 | 103 | inactive |
| EXOC2 (exocyst complex component 2) | 3 | 0.613 | 94.1 | 0.513 | 91.8 | inactive |
| RPL10A (ribosomal protein L10a) | 1 | -2.66 | 29 | -1.6 | 49.4 | inactive |
| RPL10A (ribosomal protein L10a) | 2 | -2.4 | 34.2 | -0.00238 | 38.2 | inactive |
| RPL10A (ribosomal protein L10a) | 3 | -2.46 | 33 | -2.02 | 62.7 | inactive |
| C18orf32 (chromosome 18 open reading frame 32) | 1 | 1.76 | 117 | 1.67 | 84 | inactive |
| C18orf32 (chromosome 18 open reading frame 32) | 2 | -0.135 | 79.2 | -0.0117 | 88.8 | inactive |
| C18orf32 (chromosome 18 open reading frame 32) | 3 | -2.53 | 31.7 | -2.73 | 72.6 | inactive |
| CCDC146 (coiled-coil domain containing 146) | 1 | -0.38 | 74.3 | -0.649 | 98.5 | inactive |
| CCDC146 (coiled-coil domain containing 146) | 2 | 0.0608 | 83.1 | -0.322 | 101 | inactive |
| CCDC146 (coiled-coil domain containing 146) | 3 | -0.372 | 74.5 | -1.26 | 116 | inactive |
| NLRP8 (NLR family pyrin domain containing 8) | 1 | -0.0107 | 81.7 | 0.661 | 76.7 | inactive |
| NLRP8 (NLR family pyrin domain containing 8) | 2 | 0.00729 | 82 | 0.535 | 79.6 | inactive |
| NLRP8 (NLR family pyrin domain containing 8) | 3 | -0.106 | 79.8 | -0.552 | 103 | inactive |
| RAC3 (Rac family small GTPase 3) | 1 | -2.98 | 22.5 | -2.87 | 53.6 | inactive |
| RAC3 (Rac family small GTPase 3) | 2 | 1.65 | 115 | 0.66 | 108 | inactive |
| RAC3 (Rac family small GTPase 3) | 3 | 0.625 | 94.3 | 0.49 | 92.6 | inactive |
| TMEM151A (transmembrane protein 151A) | 1 | -1.08 | 60.5 | 0.0688 | 66.3 | inactive |
| TMEM151A (transmembrane protein 151A) | 2 | -0.149 | 78.9 | -0.219 | 93.4 | inactive |
| TMEM151A (transmembrane protein 151A) | 3 | 0.236 | 86.6 | 0.183 | 92.2 | inactive |
